Experimental data: article PMC4819448, “Co-operative and Hierarchical Binding of c-FLIP and Caspase-8: A Unified Model Defines How c-FLIP Isoforms Differentially Control Cell Fate” (Molecular Cell, 2016)
No constants are given. Whether binding was seen depends on the method and setting. In cells and extracts the contact can be indirect. Some binding calls cover weakened binding; strength is not graded here.

Sequences of proteins named here, by UniProt entry; tags and fusion partners are left off. Residues count along the entry.
UniProt P48023, residues 130-281: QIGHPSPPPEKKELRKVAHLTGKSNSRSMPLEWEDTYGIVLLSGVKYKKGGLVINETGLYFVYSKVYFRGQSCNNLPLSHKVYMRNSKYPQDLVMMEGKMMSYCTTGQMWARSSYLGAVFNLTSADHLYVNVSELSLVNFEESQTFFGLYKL
UniProt Q13158: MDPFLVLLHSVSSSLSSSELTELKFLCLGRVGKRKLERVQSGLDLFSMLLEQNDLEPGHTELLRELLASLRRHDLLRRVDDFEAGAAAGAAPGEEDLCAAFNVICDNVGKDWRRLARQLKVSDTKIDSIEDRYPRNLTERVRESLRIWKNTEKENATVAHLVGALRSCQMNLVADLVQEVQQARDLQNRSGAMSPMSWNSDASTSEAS

Target: Fc-CD95L (UniProt P48023)
Assay: pull-down; native CD95 DISC: control (vector) or c-FLIPS expressing HaCaT cells, 250 U/ml Fc-CD95L 30 min 37 C, lysis in 30 mM Tris-HCl pH 7.5, 150 mM NaCl, 10% glycerol, 1% Triton X-100; ligand affinity purification, western blotting; only the target purified

Row | binding | Molecule
1 | binds | endogenous FADD (from UniProt Q13158 1-208)
2 | binds | endogenous caspase-8 (natural protein, human (endogenous in BJAB and HaCaT), UniProt Q14790 1-479, looked up, caspase-8, endogenous; procaspase-8 and p43/41 cleavage fragments detected; also called procaspase-8; p43/41 cleavage fragments; source: endogenous, BJAB and HaCaT lysates) MDFSRNLYDIGEQLDSEDLASLKFLSLDYIPQRKQEPIKDALMLFQRLQEKRMLEESNLSFLKELLFRINRLDLLITYLNTRKEEMERELQTPGRAQISAYRVMLYQISEEVSRSELRSFKFLLQEEISKCKLDDDMNLLDIFIEMEKRVILGEGKLDILKRVCAQINKSLLKIINDYEEFSKERSSSLEGSPDEFSNGEELCGVMTISDSPREQDSESQTLDKVYQMKSKPRGYCLIINNHNFAKAREKVPKLHSIRDRNGTHLDAGALTTTFEELHFEIKPHDDCTVEQIYEILKIYQLMDHSNMDCFICCILSHGDKGIIYGTDGQEAPIYELTSQFTGLKCPSLAGKPKVFFIQACQGDNYQKGIPVETDSEEQPYLEMDLSSPQTRYIPDEADFLLGMATVNNCVSYRNPAEGTWYIQSLCQSLRERCPRGDDILTILTEVNYEVSNKDDKKNMGKQMPQPTFTLRKKLVFPSD
